These results are taken from PubChem BioAssay AID1487 (National Center for Advancing Translational Sciences (NCATS), 2009).

The nature of this experiment: qHTS Assay for Modulators of Lamin A Splicing. The conditions noted are these: HeLa LMNA splicing GFP/RFP minigene ratio, 48 h. The gist of the method: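 Read-out is the ratio of GFP to DsRed2 object intensity, acquired by 488 nm laser-scanning cytometry on HeLa lamin A-EGFP minigene reporter cells. Compound incubation 48 hrs at 37 °C in Opti-MEM with 2% FBS; DMSO 0.5% final.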
For orientation: In qHTS, concentration-response curves come from the screen itself.

[1] abbreviates: measured here: GFP splicing reporter channel.
Setting [2] is: measured here: RFP viability control channel.

Some of the results follow. Further columns of the screen follow, without active or inactive calls. Most of these compounds were active or inconclusive in the main read-out, so they are no random draw. Words in brackets tell the shape of the fitted curve; partial curves, single points and poor fits give uncertain potencies.

For orientation: AC50 means the concentration at which the activity in the assay is half-maximal. As for `Cn1cc(/C=N/n2cnc3scc(-c4ccc(Cl)cc4)c3c2=O)c2ccccc21`, the half-maximal activity concentration (AC50) reads like this: under setting [1], 4.47 µM [rising, partial curve]; under setting [2], 1.58 µM [rising, full curve].
For `CC(CN1CCCCC1)OC(=O)c1cc2ccccc2o1` (centres undefined), the AC50 is 2 µM [falling, full curve, poor fit] under setting [1] and 1.26 µM [falling, full curve, poor fit] under setting [2].
Consider `COc1cccc(-c2ccc3ncnc(NCc4ccccc4)c3c2)c1`, for which the concentration at half-maximal activity (AC50) is 17.8 µM [falling, partial curve] under setting [1] and 15.8 µM [falling, partial curve] under setting [2].
On to `CN1/C(=C/C(=S)NC(=O)C2(C)CC2(Cl)Cl)C(C)(C)c2ccccc21` (centres undefined), for which the half-maximal activity concentration (AC50) under setting [2] is 8.91 µM [rising, partial curve, poor fit].
As for `COc1ccc(-c2nn3c(=O)cc(CN4CCN(C(=O)c5ccc(OC)c(OC)c5)CC4)nc3s2)cc1`, the AC50 is 0.0708 µM [rising, full curve, poor fit] under setting [1] and 2.82 µM [rising, partial curve, poor fit] under setting [2].
With `Cc1cccc(Nc2nnc(SCC(=O)c3ccc(Br)s3)s2)c1C`, under setting [1], the AC50 is 35.5 µM [rising, single point].
Consider `CC(=O)Nc1c(I)c(C(=O)N[C@H]2[C@@H](O)[C@H](O)[C@H](CO)O[C@@H]2O)c(I)c(N(C)C(C)=O)c1I`, for which the AC50 under setting [1] was 0.002 µM [falling, full curve, poor fit] and the AC50 under setting [2] is 0.00398 µM [falling, full curve, poor fit].
As for `CCn1c(SCC(N)=O)nnc1-c1cc2c(C)nn(-c3ccccc3)c2s1`, the AC50 under setting [2] is 11.2 µM [rising, partial curve, poor fit].
On the same count and under the same terms, the value for `Cc1cccc(-n2c(-c3cccc([N+](=O)[O-])c3)nc3nc4ccccc4nc32)c1` was 12.6 µM [rising, single point].
As for `CC(C)(C)c1ccc(C(=O)Nc2ccc3c(c2)CCCN3C(=O)c2cccs2)cc1`, under setting [1], the AC50 was 0.0562 µM [falling, full curve, poor fit].
For `Cc1cc(-c2ccc3ccccc3c2)n2ncnc2n1`, the AC50 by setting is: under setting [1], 15.8 µM [rising, partial curve]; under setting [2], 17.8 µM [rising, partial curve].
For the compound `COc1ccc(S(=O)(=O)N2CCCCC2)cc1NS(=O)(=O)c1cc(Cl)ccc1Cl`, the AC50 reads like this: under setting [1], 0.631 µM [rising, full curve, poor fit]; under setting [2], 0.708 µM [rising, full curve].
On to `COc1ccc(OC(C)C(=O)Nc2cccc([N+](=O)[O-])c2)cc1` (centres undefined), for which, under setting [2], the AC50 is 14.1 µM [rising, single point].
On to `Cc1ccc(Nc2nc(N)nc(CN3CCN(Cc4ccc5c(c4)OCO5)CC3)n2)cc1Cl`, for which the AC50 was 31.6 µM [rising, single point] under setting [1] and 20 µM [rising, single point] under setting [2].
`CCOc1cc(C(=O)Nc2ccccc2F)cc(Br)c1OCC`: the AC50 is 17.8 µM [rising, partial curve, poor fit] under setting [1] and 17.8 µM [rising, partial curve] under setting [2].
As to `COc1ccc(CNC(=S)NCc2ccc(OC(C)C)cc2)cc1`, the concentration at half-maximal activity (AC50) reads like this: under setting [1], 20 µM [rising, single point]; under setting [2], 17.8 µM [rising, single point].
In the case of `COC(=O)C/C=C/[C@@H](C)[C@@H](/C=N/OC[C@H]1O[C@H](c2ccccc2)C=C[C@@H]1Oc1ccc(OC)cc1)NS(=O)(=O)c1ccc(C)cc1`, the AC50 is 11.2 µM [rising, single point] under setting [1] and 11.2 µM [rising, partial curve] under setting [2].
As to `CCc1nnc(NC(=O)c2ccc(COc3ccccc3)o2)s1`, the AC50 under setting [1] is 35.5 µM [rising, single point] and the AC50 under setting [2] was 35.5 µM [rising, single point].
For the compound `CCNC(=S)Nc1ccc(Cl)cc1Cl`, the AC50 was 14.1 µM [rising, single point] under setting [1] and 35.5 µM [rising, single point] under setting [2].
With `CC(=O)Nc1ccc(NC(=O)C(C)OC(=O)c2ccccc2C(=O)c2ccc(Cl)c([N+](=O)[O-])c2)cc1` (centres undefined), the concentration at half-maximal activity (AC50) under setting [2] is 35.5 µM [rising, partial curve, poor fit].
For `O=c1oc2ccccc2cc1-c1cn(-c2ccccc2)c(=S)[nH]1`, the AC50 under setting [2] was 5.62 µM [rising, partial curve].
For `COc1ccc(OC)c(NC(=S)NCCSc2ccc(C)cc2)c1`, the concentration at half-maximal activity (AC50) under setting [1] is 35.5 µM [rising, single point].
For `O=C(CSc1nnc(-c2cc3ccccc3cc2O)n1Cc1ccco1)N1CCc2ccccc2C1`, the concentration at half-maximal activity (AC50) under setting [2] is 11.2 µM [rising, single point].
As to `COc1ccc(N=C(C)C2=C(O)c3ccccc3C2=O)cc1`, under setting [2], the half-maximal activity concentration (AC50) was 12.6 µM [rising, single point].
`O=C(N/N=C\c1ccc([N+](=O)[O-])o1)c1ccc(O)cc1`: the AC50 under setting [1] is 7.94 µM [falling, partial curve].
In the case of `COc1ccc(-c2nnc(SCC(=O)N(Cc3ccccc3)C(C)(C)C)o2)cc1OC`, the AC50 runs as follows: under setting [1], 6.31 µM [rising, partial curve]; under setting [2], 10 µM [rising, partial curve].
Regarding `NC1=NC(=O)/C(=C/c2cn(Cc3ccccc3)c3ccccc23)S1`, the concentration at half-maximal activity (AC50) under setting [2] is 25.1 µM [rising, single point].
On the same count and under the same terms, for `CN(C)CC/C=C1/c2ccccc2Sc2c(O)cc(Cl)cc21` the value was 12.6 µM [rising, partial curve, poor fit]; for `CCN(CC1COc2ccccc2O1)S(=O)(=O)c1ccc(C)cc1` (centres undefined), 20 µM [rising, single point].
Consider `O=C(O)CCCCn1c(SCC(=O)Nc2ccccc2C(F)(F)F)nc2ccsc2c1=O`, for which the concentration at half-maximal activity (AC50) under setting [1] is 0.0316 µM [rising, full curve, poor fit].
With `Cc1nn(C)c(C(=O)NNC(=S)NC2CCCCC2)c1Cl`, the AC50 reads like this: under setting [1], 8.91 µM [rising, partial curve]; under setting [2], 15.8 µM [rising, single point].
In the case of `Cc1ccc(OCCCn2cc(C#N)c3ccccc32)cc1`, the half-maximal activity concentration (AC50) under setting [2] is 22.4 µM [rising, single point].
`CCC1CN(C(=O)N2CCC(C(=O)NCCc3ccccc3Cl)CC2)c2cc(C)ccc2O1` (centres undefined): the AC50 is, setting by setting: under setting [1], 35.5 µM [falling, single point]; under setting [2], 22.4 µM [falling, single point].
